Screen size: about 340,000 compounds; about 170 (0.05%) were called active. Inconclusive means that the source gave no clear call. Such entries were picked first, then a sample of the others. Calls follow the shape of the dose curve; as a rule, active = well fitted inhibition curve with a large enough effect in the signal ratio, with a control signal flat (not every such curve was filed as active); inconclusive = small, poorly fitted or top-dose-only effect, or effect the other way, or a change in a side signal; inactive = flat fitted curve, though single readings scatter; the % refers to the signal ratio. Potencies of inconclusive entries are doubtful fits and often do not repeat.
Experiment: qHTS Assay to Find Inhibitors of Chronic Active B-Cell Receptor Signaling;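 as to activity change, negative = inhibition: plate controls were basal doxycycline-induced cells for no effect and cells given 10 µM MG132 for full effect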
Settings: ABC-DLBCL IkBa-CBG/CBR reporter, luminescence ratio (green luciferase fused to IkBa over red control in TMD8 lymphoma cells), 4 h; activity change, negative = inhibition: at 46.1 µM (top of the series) unless noted
Outline: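 Compounds up to 46 uM were incubated four hours with TMD8 cells whose green CBG68 luciferase is fused to IkappaBalpha; red CBR luminescence normalised the signal, and concentration-effect curves were fitted to fusion, red and ratio data.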
Potency is read from the fitted curve at half-maximal effect.

Row | Compound | activity change, negative = inhibition | Potency
1 | Cc1[nH]c(=O)[nH]c(=O)c1S(=O)(=O)N1CCCC(C(=O)NCCc2ccccc2)C1 (centres undefined) | inconclusive: -12.9% | 
2 | Oc1c(C(c2ccccn2)N2CCOCC2)ccc2cccnc12 (centres undefined) |  | inconclusive: 3.55 µM [falling, full curve, poor fit]
3 | Clc1ccc(-c2cn3ccccc3n2)cc1 |  | inconclusive: 20 µM [falling, single point]
4 | CCN(CC)S(=O)(=O)c1ccc(N/N=C(\C)c2ccncc2)c([N+](=O)[O-])c1 | inactive: 5.86% | 
5 | CCCCc1ccc(N/C(N)=N/c2nc(C)cc(C)n2)cc1 | inactive: 15.7% | 
6 | COC(=O)C1=C(C)Nc2nnnn2C1c1cccnc1 (centres undefined) | inconclusive: -20.7% | 
7 | O=C(NC1CC(=O)N(c2ccc(F)cc2)C1)c1ccco1 (centres undefined) | inactive: 8.37% | 
8 | Cc1nnc(SCC(=O)c2cc(C)n(C3CC3)c2C)s1 | inactive: 0.0514% | 
9 | O=C1CC(N2CCOCC2)C(=O)N1c1cc(Cl)cc(Cl)c1 (centres undefined) | inconclusive: 0.505% | 
10 | O=C(Cn1c(=O)c2cccn2c2cccnc21)NCCCN1CCN(c2ccc(F)cc2)CC1 | inactive: -5.25% | 
11 | COc1ccccc1NC(=O)CCCc1c[nH]c2ccccc12 |  | inconclusive: 23.1 µM [falling, partial curve, poor fit]
12 | O=C(Nc1sc2c(c1C(=O)O)CCC2)c1cccs1 |  | inconclusive: 28.2 µM [rising, single point]
13 | COCCn1c(SCC(=O)Nc2ccccc2C)nc2c(oc3ccccc32)c1=O | inconclusive: 7.2% | 
14 | O=C(NN=C1CCCC1)c1cc(O)cc(O)c1 |  | inconclusive: 17.8 µM [falling, partial curve, poor fit]
15 | COC(=O)/C=C/C(=O)N1CCN(c2ccccc2)CC1 | inconclusive: 6.96% | 
16 | Cc1ccc(NC(=O)c2ccc(C(C)(C)C)cc2)cc1[N+](=O)[O-] | inactive: 5.76% | 
17 | Cc1cc(C)n(-c2ccc(C(=O)NCC(=O)Nc3cc(Cl)ccc3Cl)cc2)n1 | inactive: 0.819% | 
18 | COc1ccc(/C=N\n2nnc3ccccc32)cc1 |  | inconclusive: 18.4 µM [falling, single point]
19 | COC(=O)c1cccc(C(=O)Nc2ccc(C)cc2)n1 | inconclusive: -22.4% | 
20 | CC(=C/C(=O)O)/C=C/c1ccc(Cl)o1 |  | inconclusive: 1.84 µM [rising, partial curve]
21 | CCOC(=O)c1cc2c(ccn2C)n1CC(=O)N1CCN(c2ccccc2OC)CC1 | inconclusive: -1.19% | 

Row | Compound | activity change, negative = inhibition | Potency
22 | Cc1noc(C)c1COC(=O)CCCc1nc2ccccc2s1 | inactive: 2.56% | 
23 | Oc1ccc(COc2cccc3ccccc23)c2cccnc12 | inactive: 0.816% | 
24 | COc1ccc(NC(=O)c2cccc(N3C(=O)c4cccc([N+](=O)[O-])c4C3=O)c2)cc1 |  | inconclusive: 28.2 µM [falling, single point]
25 | COC(=O)CNC(c1ccccc1Cl)c1cc(Br)ccc1NC(=O)CCN1CCOCC1 (centres undefined) | inconclusive: -4.63% | 
26 | O=C(NCc1ccccc1)c1cccc(COc2ccc3c(c2)CCC3)c1 |  | inconclusive: 29.1 µM [falling, single point]
27 | COc1cccc(C(=O)Nc2cccc(NC(=O)c3cccs3)c2)c1 | inconclusive: -20.1% | 
28 | COc1cccc(C(=O)Nc2cccc(-c3ccccc3)c2)c1 | inconclusive: -2.27% | 
29 | CCS(=O)(=O)N(CC(=O)Nc1cccc2ccccc12)c1ccc(OC)cc1 | inconclusive: -8.91% | 
30 | CCc1ccc(NCc2nc3ccccc3c(=O)[nH]2)cc1 | inactive: -21% | 
31 | CCCCC(=O)NC1(C(F)(F)F)C(=O)Nc2c1c(=O)n(C)c(=O)n2C (centres undefined) | inconclusive: 16.6% | 
32 | CCc1cccc(NC(=O)COc2ccccc2)c1 | inconclusive: 15.5% | 
33 | CCn1cc(C(=O)N[C@@H](CCSC)C(=O)NCCO)c(=O)c2cc3c(cc21)OCO3 | inconclusive: -0.628% | 
34 | CCOC(=O)c1c(NC(=O)COC(=O)CNC(=O)c2ccco2)sc(C)c1C | inconclusive: 2.16% | 
35 | CCN(CC)C(=O)c1ccc(-c2nnc(OC)c3ccccc23)cc1 | inconclusive: -0.911% | 
36 | COc1ccccc1NC(=O)N1CCN(C)CC1 | inconclusive: 0.483% | 
37 | O=S(=O)(c1c(Cl)sc(Cl)c1Br)N1CCCC1 | inconclusive: -1.58% | 
38 | O=[N+]([O-])c1cc(-c2ncccn2)c([N+](=O)[O-])s1 | inconclusive: 9.41% | 
39 | Cc1cc(OCC(=O)c2cccc(C(F)(F)F)c2)n2cnnc2n1 | inactive: -0.31% | 
40 | O=C(/C=C/c1ccccc1)NCC(=O)N/N=C/c1ccccc1[N+](=O)[O-] | inconclusive: 8.49% | 
41 | Cc1c(C(=O)NCc2ccccc2Cl)sc2ncnc(N(C)C3CCCCC3)c12 | inactive: 9.74% | 
42 | O=C/C(=C\Nc1ccc(S(=O)(=O)CCO)cc1)c1nc2cc(Cl)ccc2o1 | inactive: -0.0241% | 

Row | Compound | activity change, negative = inhibition | Potency
43 | Nn1c(Nc2ccccc2)nc2sc3c(c2c1=O)CCC3 |  | inconclusive: 6.51 µM [rising, partial curve]
44 | Cc1cc(C)n2c(SCCC(C)C)nnc2n1 | inconclusive: -1.08% | 
45 | COc1ccc(Cl)cc1NC(=O)CNc1ccccc1F |  | inconclusive: 20.6 µM [rising, partial curve, poor fit]
46 | CCCN1C(=O)C(=O)c2cc(C)ccc21 | inactive: -0.633% | 
47 | Cc1cccc(OCCC(=O)Nc2ccccc2C(N)=O)c1 |  | inconclusive: 20 µM [falling, partial curve, poor fit]
48 | CCC1=NN(C(=O)C(=O)NCCc2ccccc2)C(O)(C(F)(F)F)C1 (centres undefined) | inactive: 12.5% | 
49 | CCCCc1nnc(NC(=O)C2CCCO2)s1 (centres undefined) | inconclusive: -10.6% | 
50 | N#Cc1cccc2c1-c1ccccc1/C2=N/NC(N)=S |  | inconclusive: 1.58 µM [falling, partial curve, poor fit]
51 | COc1ccc(OC)c(CN2CCN(c3ccccc3OC)CC2)c1 | inactive: -0.337% | 
52 | CC(=O)Nc1ccc(-c2ccc(NC(C)=O)c(O)c2)cc1O | inconclusive: 0.78% | 
53 | O=C(NCCN1CCOCC1)C1CCN(Cc2ccccc2O)CC1 | inconclusive: 1.37% | 
54 | O=C(CCN1CCN(c2ccccc2F)CC1)c1ccc(Br)cc1 | inactive: -1.08% | 
55 | O=C(Nc1cccc(Cl)c1)C1C2C=CC3(O2)C1C(=O)N(CCCN1CCCCC1)C3C(=O)NC1CCCCC1 (centres undefined) | inactive: -6.91% | 
56 | CCOC(=O)Nc1ccc([N+](=O)[O-])cc1C | inconclusive: -1.61% | 
57 | Cc1ccc(C)c(N2CCN(S(=O)(=O)c3cc(C(=O)Nc4ccc(Oc5ccccc5)cc4)ccc3F)CC2)c1 |  | inconclusive: 3.55 µM [falling, partial curve, poor fit]
58 | CN(C)c1ccc(N=Cc2nc(-c3ccccc3)oc2OC(=O)c2cccc(Cl)c2)cc1 |  | inconclusive: 18.4 µM [falling, partial curve]
59 | C[C@H](NC(=O)[C@H]1N2C(=O)c3ccccc3C2SC1(C)C)C(=O)N1CCC[C@H]1C(=O)O (some centres undefined) | inactive: -1.48% | 
60 | O=C(N/C(=C/c1cccc(Br)c1)c1nc(=S)[nH][nH]1)c1ccccc1 | inconclusive: 24% | 
61 | COc1ccc(CC(=O)N/N=C(\C)c2ccccn2)cc1 | inconclusive: -10.2% | 
62 | O=C(c1ccccc1)c1cc(-c2ccccc2)on1 |  | inconclusive: 20.6 µM [falling, single point]
63 | CN(C(=O)CSc1nc(-c2cccs2)nc2ccccc12)C1CCS(=O)(=O)C1 (centres undefined) | inactive: 0.625% | 

6 compounds picked at random from the list so far, as already listed:
Row | Compound | activity change, negative = inhibition | Potency
51 | COc1ccc(OC)c(CN2CCN(c3ccccc3OC)CC2)c1 | inactive: -0.337% | 
50 | N#Cc1cccc2c1-c1ccccc1/C2=N/NC(N)=S |  | inconclusive: 1.58 µM [falling, partial curve, poor fit]
54 | O=C(CCN1CCN(c2ccccc2F)CC1)c1ccc(Br)cc1 | inactive: -1.08% | 
62 | O=C(c1ccccc1)c1cc(-c2ccccc2)on1 |  | inconclusive: 20.6 µM [falling, single point]
53 | O=C(NCCN1CCOCC1)C1CCN(Cc2ccccc2O)CC1 | inconclusive: 1.37% | 
59 | C[C@H](NC(=O)[C@H]1N2C(=O)c3ccccc3C2SC1(C)C)C(=O)N1CCC[C@H]1C(=O)O (some centres undefined) | inactive: -1.48% | 

Next part

Row | Compound | activity change, negative = inhibition | Potency
64 | Cc1ccc(S(=O)(=O)NC(Cc2ccccc2)C(=O)NN)cc1 (centres undefined) | inconclusive: -5.2% | 
65 | CC(C)Cc1nnc(NC(=O)CCC(=O)NC2CCCCCC2)s1 | inactive: -0.621% | 
66 | Cc1nc2c(ccc3nc(NC(=O)C4CC4)sc32)s1 |  | inconclusive: 10 µM [falling, partial curve]
67 | COC(=O)[C@@H](NCc1cccc(CN([C@H](C(=O)OC)C(C)C)S(C)(=O)=O)c1)C(C)C | inconclusive: 2.57% | 
68 | COc1ccc(-c2cc(COc3ccccc3)on2)cc1 | inconclusive: -14.9% | 
69 | COCc1cc(C)nc(Sc2nc3c(c(=O)n(C)c(=O)n3C)n2C)c1C#N | inconclusive: -1.5% | 
70 | COc1ccccc1OCCNC(=O)c1ccc(Br)cc1 | inconclusive: -1.01% | 
71 | Cn1c(SCc2nnc(-c3ccccc3Br)o2)nc2sc3c(c2c1=O)CCC3 | inconclusive: 0.186% | 
72 | N#C/C(=C\c1ccc(OC(=O)c2ccc(Cl)s2)cc1)c1nc2ccccc2[nH]1 | inconclusive: 8.06% | 
73 | CC(=O)Nc1sc(N/N=C/c2ccc(C)cc2)nc1-c1ccc(C)cc1 | inactive: 8.65% | 
74 | CCc1ccc(C2=NN(C(=O)OC)C(O)(C(F)(F)F)C2)cc1 (centres undefined) | inconclusive: 5.02% | 
75 | CC(=O)NCCOc1nc(N2CCCCC2)nc(N2CCCCC2)n1 |  | inconclusive: 35.5 µM [falling, single point]
76 | CCOc1ccccc1CNC(=O)C1CCCN(c2nn3c(=O)cc(C)nc3s2)C1 (centres undefined) | inconclusive: 1.29% | 
77 | COc1ccc(-c2nc3sc(CCNC(=O)C(=O)Nc4cccc(NC(C)=O)c4)c(C)n3n2)cc1 |  | inconclusive: 10 µM [falling, partial curve]
78 | COc1ccc(C)cc1NC(=O)CN1CCCC1c1ccc2c(c1)OCCCO2 (centres undefined) | inconclusive: -10.9% | 
79 | O=C(CSc1ncc(-c2ccccc2)n1C1CCCC1)N1CCc2ccccc21 | inconclusive: 6.63% | 
80 | CCc1nnc(NC(=O)CSc2nc3cc(OC)c(OC)cc3cc2C)s1 | inconclusive: -10.7% | 
81 | CSc1cccc(NS(=O)(=O)c2ccc3c(c2)CCN3C(C)=O)c1 | inconclusive: -15.1% | 
82 | O=C(CN1CCN(CCC(=O)Nc2ccccc2F)CC1)Nc1ccc(Cl)cc1 | inconclusive: -5.41% | 
83 | CCOC(=O)N1CCN(CCC(=O)Nc2cc(C)ccc2OC)CC1 | inconclusive: -0.0321% | 
84 | COCCCNC(=O)CC1C[C@H](C(=O)N2CCOCC2)[C@@]2(C)c3[nH]c4ccc(OC)cc4c3CCN2C1=O (some centres undefined) | inactive: 8.48% | 

From PubChem BioAssay AID493014 (National Center for Advancing Translational Sciences (NCATS), 2011)
